Source: publication PMC5509376
These are yes or no findings as the source states them, for the method shown. For some of these results: Binding seen in cells or lysates may run through a third protein. Some entries that bind do so weakly or less than the wild type.

Chains of the proteins cited; added tags and fusions are not shown. Lines headed by an entry give the natural chain unless they say otherwise; changes in a name come on top. Residues count along the entry.
UniProt Q6PHU5, whole entry, looked up, stated change not applied: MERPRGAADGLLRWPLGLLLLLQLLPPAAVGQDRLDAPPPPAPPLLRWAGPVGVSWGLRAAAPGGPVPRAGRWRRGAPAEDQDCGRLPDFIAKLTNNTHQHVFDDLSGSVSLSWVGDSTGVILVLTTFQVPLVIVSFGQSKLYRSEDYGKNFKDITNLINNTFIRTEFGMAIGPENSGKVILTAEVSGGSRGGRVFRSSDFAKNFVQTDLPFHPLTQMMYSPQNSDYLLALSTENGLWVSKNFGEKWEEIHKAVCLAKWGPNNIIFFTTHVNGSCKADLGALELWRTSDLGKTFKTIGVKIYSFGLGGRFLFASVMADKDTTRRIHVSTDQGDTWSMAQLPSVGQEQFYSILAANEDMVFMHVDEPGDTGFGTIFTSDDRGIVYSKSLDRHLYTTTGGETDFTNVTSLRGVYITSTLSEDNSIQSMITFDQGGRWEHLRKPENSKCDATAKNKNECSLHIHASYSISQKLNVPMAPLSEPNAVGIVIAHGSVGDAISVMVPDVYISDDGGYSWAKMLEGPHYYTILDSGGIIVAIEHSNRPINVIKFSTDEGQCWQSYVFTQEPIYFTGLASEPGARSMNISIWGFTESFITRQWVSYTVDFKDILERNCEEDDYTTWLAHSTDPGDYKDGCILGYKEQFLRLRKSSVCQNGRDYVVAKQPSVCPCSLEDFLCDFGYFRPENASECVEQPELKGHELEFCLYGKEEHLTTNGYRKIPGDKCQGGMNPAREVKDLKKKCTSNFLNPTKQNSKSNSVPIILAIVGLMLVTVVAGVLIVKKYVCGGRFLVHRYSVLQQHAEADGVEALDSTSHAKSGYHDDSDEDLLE
UniProt Q6PHU5, 74-825: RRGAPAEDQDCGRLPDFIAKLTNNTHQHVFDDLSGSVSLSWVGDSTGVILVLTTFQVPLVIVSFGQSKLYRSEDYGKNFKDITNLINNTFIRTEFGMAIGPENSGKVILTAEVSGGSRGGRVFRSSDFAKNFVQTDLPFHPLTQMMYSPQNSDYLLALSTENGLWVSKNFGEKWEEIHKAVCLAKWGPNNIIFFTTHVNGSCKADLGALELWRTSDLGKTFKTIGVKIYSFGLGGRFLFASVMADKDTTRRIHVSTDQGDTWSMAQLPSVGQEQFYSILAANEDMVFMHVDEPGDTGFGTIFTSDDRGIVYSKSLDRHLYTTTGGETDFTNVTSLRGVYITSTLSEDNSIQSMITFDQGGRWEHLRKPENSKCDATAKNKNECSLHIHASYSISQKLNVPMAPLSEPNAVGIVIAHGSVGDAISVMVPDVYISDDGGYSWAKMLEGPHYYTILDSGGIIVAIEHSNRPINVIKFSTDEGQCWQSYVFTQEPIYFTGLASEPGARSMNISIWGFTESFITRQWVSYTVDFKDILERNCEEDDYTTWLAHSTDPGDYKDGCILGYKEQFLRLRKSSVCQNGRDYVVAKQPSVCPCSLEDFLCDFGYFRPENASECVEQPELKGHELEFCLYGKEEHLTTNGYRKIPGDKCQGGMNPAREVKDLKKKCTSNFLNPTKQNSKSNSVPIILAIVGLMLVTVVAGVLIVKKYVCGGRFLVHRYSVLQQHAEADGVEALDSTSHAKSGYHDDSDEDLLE

How the values were obtained:
[1] = target: VPS10P domain of sortilin fused with GST (mouse) (UniProt Q6PHU5); assay: pull-down; both purified
[2] = target: cellular prion protein (mouse) (UniProt P04925); assay: co-IP

## His-tagged recombinant PrP lacking residues 23–88 (from UniProt P04925 23-230)
[1]
  binding: no binding (tested: 2 μg of each protein)

## full-length mycHis-tagged sortilin (from UniProt Q6PHU5 74-825) (receptor)
[2]
  binding: binds

## sortilinΔ76–177 (mycHis-tagged) (from UniProt Q6PHU5 74-825) (receptor)
[2]
  binding: binds

## sortilinΔ178–290 (mycHis-tagged) (from UniProt Q6PHU5 74-825) (receptor)
[2]
  binding: binds

## sortilinΔ291–409 (mycHis-tagged) (from UniProt Q6PHU5 74-825) (receptor)
[2]
  binding: binds

## sortilinΔ410–508 (mycHis-tagged) (from UniProt Q6PHU5 74-825) (receptor)
[2]
  binding: binds

## sortilinΔ509–609 (mycHis-tagged) (from UniProt Q6PHU5 74-825) (receptor)
[2]
  binding: binds
